Results taken from paper PMC8285421.
Results are given in words; binding and its absence hold for the method and conditions named. Binding seen in cells or lysates may run through a third protein. Some entries that bind do so weakly or less than the wild type.

Chains of the proteins cited; added tags and fusions are not shown.
UniProt P16390: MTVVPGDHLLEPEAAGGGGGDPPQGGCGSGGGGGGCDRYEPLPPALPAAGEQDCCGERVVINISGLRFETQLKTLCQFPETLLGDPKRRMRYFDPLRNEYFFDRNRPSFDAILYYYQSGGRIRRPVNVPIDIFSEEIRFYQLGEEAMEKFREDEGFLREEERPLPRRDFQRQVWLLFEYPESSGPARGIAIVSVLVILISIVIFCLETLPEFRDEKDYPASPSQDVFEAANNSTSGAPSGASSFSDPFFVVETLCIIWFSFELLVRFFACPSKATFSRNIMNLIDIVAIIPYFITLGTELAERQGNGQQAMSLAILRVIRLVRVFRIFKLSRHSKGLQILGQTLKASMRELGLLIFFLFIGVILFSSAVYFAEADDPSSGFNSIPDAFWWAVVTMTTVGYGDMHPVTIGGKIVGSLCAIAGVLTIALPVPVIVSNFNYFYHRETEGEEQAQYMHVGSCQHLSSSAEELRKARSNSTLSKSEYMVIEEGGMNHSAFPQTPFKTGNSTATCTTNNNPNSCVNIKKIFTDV
UniProt P15384: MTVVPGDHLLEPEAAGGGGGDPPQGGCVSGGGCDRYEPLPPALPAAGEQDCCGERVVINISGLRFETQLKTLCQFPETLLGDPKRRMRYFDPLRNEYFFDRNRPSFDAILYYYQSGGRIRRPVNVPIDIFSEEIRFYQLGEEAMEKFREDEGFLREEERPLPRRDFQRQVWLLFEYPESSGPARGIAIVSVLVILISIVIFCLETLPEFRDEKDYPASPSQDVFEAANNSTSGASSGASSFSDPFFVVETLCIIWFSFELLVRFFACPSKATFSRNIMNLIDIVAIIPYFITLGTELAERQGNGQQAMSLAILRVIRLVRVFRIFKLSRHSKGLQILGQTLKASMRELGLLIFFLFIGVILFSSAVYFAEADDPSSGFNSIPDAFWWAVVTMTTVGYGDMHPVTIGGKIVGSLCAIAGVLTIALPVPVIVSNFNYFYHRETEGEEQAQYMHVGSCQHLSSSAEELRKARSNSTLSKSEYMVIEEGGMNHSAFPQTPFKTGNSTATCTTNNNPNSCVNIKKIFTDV

Experiments:
[1] = target: T1, KCNE4 (regulatory subunit), endogenous in CY15 dendritic cells (mouse (endogenous in CY15)) (UniProt Q9WTW3); test: co-IP; CY15 dendritic cell lysate (1% Triton X-100, 150 mM NaCl, 50 mM HEPES pH 7.4), 2 mg protein; immunoprecipitated with anti-Kv1.3 or anti-KCNE4 and protein G-Sepharose, immunoblotted for Kv1.3 and KCNE4; cells untreated or treated with LPS (100 ng/ml) for 24 h
T1 sequence: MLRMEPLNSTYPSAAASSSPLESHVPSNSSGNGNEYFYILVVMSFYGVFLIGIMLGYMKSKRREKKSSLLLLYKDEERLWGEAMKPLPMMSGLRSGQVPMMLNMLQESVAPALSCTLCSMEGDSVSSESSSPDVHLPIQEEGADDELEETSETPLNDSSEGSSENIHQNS

[2] = target: Kv1.3 (voltage-dependent potassium channel), endogenous in CY15 dendritic cells (mouse (endogenous in CY15)) (UniProt P16390); test: as above
[3] = target: Kv1.3YFP (rat (printed as rKv1.3)) (UniProt P15384); test: FRET or BRET; FACS-based FRET in living Jurkat T cells cotransfected with CFP and YFP fusions; CFP donor excited at 405 nm, FRET signal with a 525/50 filter; FRET-positive cells gated against cells cotransfected with CFP and YFP

“Kv1.3 (voltage-dependent potassium channel), endogenous in CY15 dendritic cells (from UniProt P16390 1-528)” was tested, and the binding [1] was “binds”.

B1: KCNE4 (regulatory subunit), endogenous in CY15 dendritic cells (protein, UniProt Q9WTW3 1-170)
chain: MLRMEPLNSTYPSAAASSSPLESHVPSNSSGNGNEYFYILVVMSFYGVFLIGIMLGYMKSKRREKKSSLLLLYKDEERLWGEAMKPLPMMSGLRSGQVPMMLNMLQESVAPALSCTLCSMEGDSVSSESSSPDVHLPIQEEGADDELEETSETPLNDSSEGSSENIHQNS
B1 was tested, and the binding [2] was “binds”.

B2: KCNE4CFP (protein, UniProt Q9WTW3 1-170)
chain: MLRMEPLNSTYPSAAASSSPLESHVPSNSSGNGNEYFYILVVMSFYGVFLIGIMLGYMKSKRREKKSSLLLLYKDEERLWGEAMKPLPMMSGLRSGQVPMMLNMLQESVAPALSCTLCSMEGDSVSSESSSPDVHLPIQEEGADDELEETSETPLNDSSEGSSENIHQNS
For B2, the binding [3] was “binds”.
